# ± gives the standard deviation of the averaged measurements. Small differences around the control level are noise.
# Legend:
# Experiment in all cases: level (log10 ratio to DMSO vehicle control); higher = higher biomarker level / cell amount than vehicle control
# [1] = compound: CC(C)(C)C(=O)CC(=O)C(F)(F)C(F)(F)C(F)(F)F [(Heptafluorobutanoyl)pivaloylmethane]; conditions: 2200 nM; in DMSO
# Description: (§1)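 BioMAP Diversity Plus panel of 12 human primary cell co-culture systems (3C, 4H, LPS, SAg, BT, BF4T, BE3C, CASM3C, HDF3CGF, KF3CT, MyoF, Mphg). Compounds were added 1 h before stimulation and left for 24 h (MyoF 48 h; BT 72 h for soluble read-outs or 6 d for IgG). Biomarkers were read by ELISA, cytotoxicity by SRB, PBMC viability and proliferation by Alamar Blue. Each well value was divided by the mean of 8 DMSO control wells on the same plate and log10 transformed; duplicate blinded samples were tested at 4 concentrations.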
# [2] = compound: CCCCCCCCC(F)(F)C(F)(F)C(F)(F)C(F)(F)C(F)(F)C(F)(F)F [1-(Perfluorohexyl)octane]; conditions: in DMSO
# Description: as §1
# [3] = compound: CCN(CCO)S(=O)(=O)C(F)(F)C(F)(F)C(F)(F)C(F)(F)C(F)(F)C(F)(F)C(F)(F)C(F)(F)F [N-Ethyl-N-(2-hydroxyethyl)perfluorooctanesulfonamide]; conditions: in DMSO
# Description: as §1
# [4] = compound: CN(C(=O)C(F)(F)C(F)(F)C(F)(F)F)[Si](C)(C)C [N-Methyl-N-trimethylsilylheptafluorobutyramide]; conditions: 2200 nM; in DMSO
# Description: as §1
# [5] = compound: Cc1ccc(S(=O)(=O)OCC(F)(F)C(F)(F)C(F)(F)C(F)(F)C(F)(F)C(F)F)cc1 [1H,1H,7H-Perfluoroheptyl 4-methylbenzenesulfonate]; conditions: 2200 nM; in DMSO
# Description: as §1
# [6] = compound: FC(F)(F)C(F)(F)C(F)(F)C(F)(F)C(F)(F)C(F)(F)CC1CO1 [3-(Perfluorohexyl)-1,2-epoxypropane]; conditions: 2200 nM; in DMSO
# Description: as §1
# [7] = compound: NC(=O)C(F)(F)C(F)(F)C(F)(F)F [Heptafluorobutyramide]; conditions: 2200 nM; in DMSO
# Description: as §1
# [8] = compound: NCC(F)(F)C(F)(F)C(F)(F)C(F)(F)C(F)(F)C(F)(F)C(F)(F)F [1H,1H-Perfluorooctylamine]; conditions: 2200 nM; in DMSO
# Description: as §1
# [9] = compound: O=C(O)C(F)(F)C(F)(F)C(F)(F)C(F)(F)C(=O)O [Octafluoroadipic acid]; conditions: 2200 nM; in DMSO
# Description: as §1
# [10] = compound: O=C(O)C(F)(F)C(F)(F)C(F)(F)C(F)(F)C(F)(F)C(F)(F)C(F)(F)C(F)(F)C(F)(F)C(F)F [11-H-Perfluoroundecanoic acid]; conditions: 2200 nM; in DMSO
# Description: as §1
# [11] = compound: O=C(O)C(F)(F)C(F)(F)C(F)(F)C(F)(F)C(F)(F)C(F)(F)F [Perfluoroheptanoic acid]; conditions: in DMSO
# Description: as §1
# [12] = compound: O=C(O)C(F)(F)C(F)(F)C(F)(F)C(F)(F)F [Perfluoropentanoic acid]; conditions: in DMSO
# Description: as §1
# [13] = compound: O=C(O)C(F)(F)C(F)(F)C(F)(F)OC(F)(F)F [Perfluoro(4-methoxybutanoic) acid]; conditions: 2200 nM; in DMSO
# Description: as §1
# [14] = compound: O=S(=O)(O)CCC(F)(F)C(F)(F)C(F)(F)C(F)(F)C(F)(F)C(F)(F)C(F)(F)C(F)(F)F [8:2 Fluorotelomer sulfonic acid]; conditions: in DMSO
# Description: as §1
# [15] = compound: OCC(F)(F)C(F)(F)C(F)(F)F [1H,1H-Heptafluorobutanol]; conditions: 2200 nM; in DMSO
# Description: as §1
# [16] = compound: OCCC(F)(F)C(F)(F)C(F)(F)C(F)(F)C(F)(F)C(F)(F)F [6:2 Fluorotelomer alcohol]; conditions: 2200 nM; in DMSO
# Description: as §1
Test System,level (log10) [1],level (log10) ([2]; 740 nM),level (log10) ([2]; 2200 nM),level (log10) ([3]; 2200 nM),level (log10) ([3]; 6700 nM),level (log10) ([3]; 20000 nM),level (log10) [4],level (log10) [5],level (log10) [6],level (log10) [7],level (log10) [8],level (log10) [9],level (log10) [10],level (log10) ([11]; 2200 nM),level (log10) ([11]; 6700 nM),level (log10) ([11]; 20000 nM),level (log10) ([11]; 60000 nM),level (log10) ([12]; 2200 nM),level (log10) ([12]; 6700 nM),level (log10) ([12]; 20000 nM),level (log10) ([12]; 60000 nM),level (log10) [13],level (log10) ([14]; 2200 nM),level (log10) ([14]; 6700 nM),level (log10) ([14]; 20000 nM),level (log10) ([14]; 60000 nM),level (log10) [15],level (log10) [16]
CASM3C:CD141/Thrombomodulin,-0.009 ± 0.031,-0.0105 ± 0.022,-0.0115 ± 0.018,0.0235 ± 0.018,0.078 ± 0.014,0.191 ± 0.013,-0.014 ± 0.024,-0.0085 ± 0.011,0.0165 ± 0.028,-0.017 ± 0.051,0.0055 ± 0.029,0.0085 ± 0.022,-0.031 ± 0.0042,0.0415 ± 0.059,-0.0085 ± 0.025,0.0065 ± 0.0064,0.011 ± 0.033,-0.008,-0.0065 ± 0.016,-0.0135 ± 0.035,0.0105 ± 0.005,-0.0015 ± 0.05,0.015 ± 0.075,-0.0045 ± 0.029,-0.026 ± 0.04,-0.0265 ± 0.0035,-0.008 ± 0.03,0.0395 ± 0.046
CASM3C:CD142/Tissue Factor,-0.0295 ± 0.012,-0.023 ± 0.0042,-0.017 ± 0.0057,0.0075 ± 0.044,-0.0325 ± 0.012,0.0145 ± 0.022,-0.007 ± 0.051,-0.016 ± 0.0042,-0.005 ± 0.048,-0.013 ± 0.011,0.002 ± 0.031,-0.013 ± 0.013,-0.039 ± 0.034,0.0105 ± 0.029,-0.0065 ± 0.012,0.015 ± 0.016,0.015 ± 0.071,-0.0215 ± 0.032,-0.002 ± 0.0071,-0.013 ± 0.024,-0.0225 ± 0.056,-0.0045 ± 0.0021,0.022 ± 0.045,-0.045 ± 0.0042,-0.067 ± 0.027,-0.0195 ± 0.03,0.008 ± 0.02,0.007 ± 0.073
CASM3C:CXCL8/IL-8,0.0065 ± 0.015,0.011 ± 0.014,0.005 ± 0.013,-0.0075 ± 0.012,-0.0075 ± 0.016,-0.024 ± 0.0085,0.001,0.004 ± 0.011,0.0265 ± 0.05,-0.0005 ± 0.021,0.0125 ± 0.037,-0.002 ± 0.0071,0.004 ± 0.0085,0.021 ± 0.038,-0.0085 ± 0.0064,-0.002 ± 0.0042,0.046 ± 0.018,-0.006 ± 0.0071,-0.01 ± 0.0085,-0.019 ± 0.011,-0.0015 ± 0.013,0 ± 0.03,0.0225 ± 0.0035,0.019 ± 0.018,-0.0065 ± 0.012,0.0035 ± 0.013,0.0095 ± 0.00071,0.0315 ± 0.033
CASM3C:CXCL9/MIG,0.0015 ± 0.0078,0.0175 ± 0.035,0.0015 ± 0.013,-0.0045 ± 0.033,-0.0675 ± 0.005,-0.166 ± 0.073,0.0005 ± 0.044,-0.001 ± 0.035,0.028 ± 0.076,0.004 ± 0.017,0.003 ± 0.054,0.0045 ± 0.03,0.004 ± 0.0014,0.042 ± 0.042,0.006 ± 0.023,0.015 ± 0.016,0.054 ± 0.051,-0.0035 ± 0.069,0.001 ± 0.062,-0.0015 ± 0.036,0.043 ± 0.017,0.0055 ± 0.013,0.009 ± 0.05,-0.03 ± 0.02,-0.032 ± 0.0071,0 ± 0.021,0.0175 ± 0.005,0.0285 ± 0.083
CASM3C:HLA-DR,0.0175 ± 0.021,0.002 ± 0.0057,-0.0005 ± 0.0035,0.006 ± 0.0042,-0.002 ± 0.024,-0.111 ± 0.013,-0.0035 ± 0.039,-0.0115 ± 0.005,0.0245 ± 0.066,-0.018 ± 0.023,0.0015 ± 0.03,-0.005 ± 0.058,0.005 ± 0.05,0.0305 ± 0.079,-0.009 ± 0.0085,-0.0315 ± 0.005,-0.004 ± 0.052,-0.001 ± 0.031,-0.019 ± 0.014,-0.022 ± 0.023,0.003 ± 0.054,-0.003 ± 0.037,0.018 ± 0.011,0.0155 ± 0.023,-0.009 ± 0.024,-0.015 ± 0.017,0.022 ± 0.0014,0.024 ± 0.088
CASM3C:IL-6,0.0065 ± 0.032,0.016 ± 0.058,-0.0095 ± 0.021,0.0245 ± 0.023,-0.0025 ± 0.0035,-0.0255 ± 0.044,0.0105 ± 0.03,0.012 ± 0.059,0.024 ± 0.058,0.0125 ± 0.081,0.04 ± 0.018,-0.0005 ± 0.037,0.0075 ± 0.025,0.0695 ± 0.081,-0.0135 ± 0.0078,-0.0205 ± 0.021,0.008 ± 0.085,0.01 ± 0.072,-0.02 ± 0.028,-0.028 ± 0.027,0.014 ± 0.047,-0.0005 ± 0.054,0.016 ± 0.024,0.0025 ± 0.029,-0.0075 ± 0.0064,-0.0005 ± 0.018,0.035 ± 0.0085,0.0385 ± 0.087
CASM3C:LDLR,-0.0045 ± 0.012,0.025 ± 0.044,0.008 ± 0.0085,0.0005 ± 0.025,-0.076 ± 0.0057,-0.223 ± 0.021,0.022 ± 0.014,0.0255 ± 0.053,0.0195 ± 0.032,0.0215 ± 0.028,-0.0225 ± 0.0064,-0.015 ± 0.023,-0.005 ± 0.02,0.0395 ± 0.04,0.0175 ± 0.0092,0.012 ± 0.016,0.0125 ± 0.039,-0.0145 ± 0.005,-0.0085 ± 0.0064,-0.0045 ± 0.0078,-0.0095 ± 0.025,0.015 ± 0.04,0.006 ± 0.023,-0.0005 ± 0.0064,0.0135 ± 0.013,0.0415 ± 0.026,-0.007 ± 0.017,0.047 ± 0.045
CASM3C:M-CSF,0.029 ± 0.035,0.0145 ± 0.046,-0.0135 ± 0.025,0.006 ± 0.047,0.0045 ± 0.00071,0.0395 ± 0.0092,0.0055 ± 0.043,0.003 ± 0.044,0.0235 ± 0.044,0.0275 ± 0.077,-0.008 ± 0.054,-0.024 ± 0.0014,0.0145 ± 0.026,0.051 ± 0.044,-0.004 ± 0.028,-0.005 ± 0.028,0.0035 ± 0.049,-0.0075 ± 0.013,-0.0055 ± 0.016,-0.004 ± 0.017,0.0045 ± 0.032,0.0275 ± 0.077,0.0095 ± 0.052,0.0005 ± 0.015,-0.0115 ± 0.0021,0.037 ± 0.028,0.0345 ± 0.013,0.035 ± 0.072
CASM3C:PAI-I,-0.0045 ± 0.0035,0.003 ± 0.014,0.008 ± 0.0071,0,0 ± 0.0071,0.004 ± 0.0085,0.002 ± 0.025,0.002 ± 0.014,0.012 ± 0.018,0.009 ± 0.0057,0.0075 ± 0.0078,-0.007 ± 0.016,-0.006 ± 0.0085,0.009 ± 0.0085,-0.0005 ± 0.018,0.0035 ± 0.011,0.0105 ± 0.015,-0.0075 ± 0.013,-0.0095 ± 0.011,-0.007 ± 0.0042,0.0005 ± 0.011,0.0075 ± 0.0021,0.001 ± 0.016,-0.0015 ± 0.019,0.012 ± 0.018,0.0095 ± 0.012,-0.0015 ± 0.0092,0.0135 ± 0.00071
CASM3C:Proliferation,0.0205 ± 0.028,-0.028,-0.036 ± 0.041,0.025 ± 0.041,0.011 ± 0.04,-0.175 ± 0.005,0.0305 ± 0.033,-0.017 ± 0.011,-0.023 ± 0.0042,-0.012 ± 0.044,-0.0225 ± 0.044,-0.0045 ± 0.019,-0.033 ± 0.047,-0.0135 ± 0.005,-0.023 ± 0.0085,-0.008 ± 0.035,0.0045 ± 0.053,0.0015 ± 0.0035,0.0185 ± 0.021,-0.0305 ± 0.067,0.0215 ± 0.052,-0.0455 ± 0.039,0.01 ± 0.031,0.005 ± 0.072,0.0065 ± 0.022,0.0245 ± 0.023,0.009 ± 0.0057,-0.0105 ± 0.00071

# Shown as tab-separated lines: entries from further up
Test System	level (log10) [1]	level (log10) ([2]; 740 nM)	level (log10) ([2]; 2200 nM)	level (log10) ([3]; 2200 nM)	level (log10) ([3]; 6700 nM)	level (log10) ([3]; 20000 nM)	level (log10) [4]	level (log10) [5]	level (log10) [6]	level (log10) [7]	level (log10) [8]	level (log10) [9]	level (log10) [10]	level (log10) ([11]; 2200 nM)	level (log10) ([11]; 6700 nM)	level (log10) ([11]; 20000 nM)	level (log10) ([11]; 60000 nM)	level (log10) ([12]; 2200 nM)	level (log10) ([12]; 6700 nM)	level (log10) ([12]; 20000 nM)	level (log10) ([12]; 60000 nM)	level (log10) [13]	level (log10) ([14]; 2200 nM)	level (log10) ([14]; 6700 nM)	level (log10) ([14]; 20000 nM)	level (log10) ([14]; 60000 nM)	level (log10) [15]	level (log10) [16]
CASM3C:LDLR	-0.0045 ± 0.012	0.025 ± 0.044	0.008 ± 0.0085	0.0005 ± 0.025	-0.076 ± 0.0057	-0.223 ± 0.021	0.022 ± 0.014	0.0255 ± 0.053	0.0195 ± 0.032	0.0215 ± 0.028	-0.0225 ± 0.0064	-0.015 ± 0.023	-0.005 ± 0.02	0.0395 ± 0.04	0.0175 ± 0.0092	0.012 ± 0.016	0.0125 ± 0.039	-0.0145 ± 0.005	-0.0085 ± 0.0064	-0.0045 ± 0.0078	-0.0095 ± 0.025	0.015 ± 0.04	0.006 ± 0.023	-0.0005 ± 0.0064	0.0135 ± 0.013	0.0415 ± 0.026	-0.007 ± 0.017	0.047 ± 0.045
CASM3C:M-CSF	0.029 ± 0.035	0.0145 ± 0.046	-0.0135 ± 0.025	0.006 ± 0.047	0.0045 ± 0.00071	0.0395 ± 0.0092	0.0055 ± 0.043	0.003 ± 0.044	0.0235 ± 0.044	0.0275 ± 0.077	-0.008 ± 0.054	-0.024 ± 0.0014	0.0145 ± 0.026	0.051 ± 0.044	-0.004 ± 0.028	-0.005 ± 0.028	0.0035 ± 0.049	-0.0075 ± 0.013	-0.0055 ± 0.016	-0.004 ± 0.017	0.0045 ± 0.032	0.0275 ± 0.077	0.0095 ± 0.052	0.0005 ± 0.015	-0.0115 ± 0.0021	0.037 ± 0.028	0.0345 ± 0.013	0.035 ± 0.072
